Test results: PubChem BioAssay AID292 (DTP/NCI, 2004)
The list is a part of this screen's results and no random one: it gathers tests that were run many times, whatever their T/C, doses with no T/C, and many T/C values between a quarter and a half above the control. Further doses and runs are listed elsewhere. T/C is the treated group as % of the vehicle group. Some doses have a count of surviving animals in place of a T/C: the source holds a T/C of zero for them, seemingly a mark for toxic or unscored doses. Some survivor counts are full or nearly so, which does not show that the dose was tolerated: the source hardly ever lists a survival T/C far under the control, and the zero likely stands for such cases as well. Counts of survivors are from the toxicity check (mostly the fifth day) where no day follows; animals may have died later. Schedules are NCI's codes, taken here to give the interval after Q, in days (D) or hours (H), and the number of doses after X. Some doses were run more than once; the results are listed from low to high. For survival time, the PubChem record calls one and a half times the control and up active, and a quarter to a half above the control has no call in these data; cut-offs in other NCI protocols can differ. Some T/C values carry the count of animals alive at the toxicity check (mostly the fifth day); without a count, all were alive then.

Test system: B6C3F1 mice, ip Sarcoma M5076, median survival T/C
Experiment: NCI In Vivo Anticancer Drug Screen. Data for tumor model Sarcoma M5076 (intraperitoneal) in B6C3F1 mice
Settings: T/C endpoint: median survival time, higher T/C = longer survival
How it was run: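 Mice carrying the transplanted tumour received compound treatment. Survival was recorded, and each value is the treated-group measurement divided by that of the vehicle-dosed control group.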

[1] = dose: 25.0 mg/kg/injection, schedule: Q04DX004 (ip), vehicle: water
[2] = dose: 50.0 mg/kg/injection, schedule: Q04DX004 (ip), vehicle: water
[3] = dose: 100.0 mg/kg/injection, schedule: Q04DX004 (ip), vehicle: water
[4] = dose: 100.0 mg/kg/injection, schedule: Q04DX004 (ip), vehicle: saline with Tween-80
[5] = dose: 400.0 mg/kg/injection, schedule: Q04DX004 (ip), vehicle: saline with Tween-80
[6] = dose: 800.0 mg/kg/injection, schedule: Q04DX004 (ip), vehicle: Klucel (hydroxypropylcellulose) (HPC)
[7] = dose: 800.0 mg/kg/injection, schedule: Q04DX004 (ip), vehicle: saline with Tween-80
[8] = dose: 400.0 mg/kg/injection, schedule: Q04DX004 (ip), vehicle: Klucel (hydroxypropylcellulose) (HPC)
[9] = dose: 150.0 mg/kg/injection, schedule: Q04DX004 (ip), vehicle: saline with Tween-80
[10] = dose: 300.0 mg/kg/injection, schedule: Q04DX004 (ip), vehicle: saline with Tween-80
[11] = dose: 200.0 mg/kg/injection, schedule: Q04DX004 (ip), vehicle: water

With `Nc1n[n+](-c2ccccc2)no1` the T/C (dose: 6.25 mg/kg/injection, schedule: Q01DX009 (ip), vehicle: water) was 126 and 127 % of control [9 of 10 alive on day 14], the T/C (dose: 6.25 mg/kg/injection, schedule: Q04DX004 (ip), vehicle: water) was 126 % of control and the T/C (dose: 12.5 mg/kg/injection, schedule: Q01DX009 (ip), vehicle: water) was 135 % of control. For the same compound, the T/C (dose: 12.5 mg/kg/injection, schedule: Q04DX004 (ip), vehicle: water) was 126 and 129 % of control, the T/C (dose: 25.0 mg/kg/injection, schedule: Q01DX009 (ip), vehicle: water) was 144 % of control [8 of 10 alive on day 14] and the T/C [1] was 127, 133, 147 % of control. For the same compound, the T/C [2] was 137 and 140 % of control [8 of 10 alive on day 14], the survivor count [2] was 6 of 10 on day 14 and the survivor count (dose: 100.0 mg/kg/injection, schedule: Q01DX009 (ip), vehicle: water) was 0 of 10 on day 14. The survivor count [3] was 0 of 10 on day 14.
In the case of `NCc1cc(O)c(O)c(O)c1`, the survivor count (dose: 1200.0 mg/kg/injection, schedule: Q04DX004 (ip), vehicle: saline) is reported as 5 of 10 on day 14.
For `CN1CCN(c2ccc3nc(-c4ccc5nc(-c6ccc(O)cc6)[nH]c5c4)[nH]c3c2)CC1`, the survivor count (dose: 450.0 mg/kg/injection, schedule: Q04DX004 (ip), vehicle: saline) was 2 of 10 on day 14.
With `C/C(=N\NC(=S)N1CC2CCC(CC2)C1)c1cccc(C)n1` the survivor count (dose: 6.25 mg/kg/injection, schedule: Q04DX004 (ip), vehicle: saline with Tween-80) was 5 of 10 on day 14 and the survivor count [4] was 1 of 10 on day 14, 3 of 10 on day 14, 5 of 10 on day 14.
`c1ccc2c(c1)oc1cc3c(cc12)n1nnnc1c1cccn31` was tested, and the survivor count (dose: 25.0 mg/kg/injection, schedule: Q04DX004 (ip), vehicle: saline with Tween-80) was 10 of 10 on day 14, the survivor count (dose: 50.0 mg/kg/injection, schedule: Q04DX004 (ip), vehicle: saline with Tween-80) was 10 of 10 on day 14 and the survivor count [4] was 10 of 10 on day 14. The survivor count (dose: 200.0 mg/kg/injection, schedule: Q04DX004 (ip), vehicle: saline with Tween-80) was 10 of 10 on day 14 and the survivor count [5] was 9 of 10 on day 14.
With `O=C1c2cccc(NCCCNCCO)c2C(=O)c2cccc(NCCCNCCO)c21` the survivor count (dose: 100.0 mg/kg/injection, schedule: Q04DX004 (ip), vehicle: acid diluted with saline) was 7 of 10.
For `O=C1NC(=O)N(c2ccc(Cl)c(Cl)c2)C1=O`, the survivor count [6] was 0 of 10 on day 14.
In the case of `N#CC1C(=O)NC(=O)C(C#N)C1c1ccc(Cl)c(Cl)c1` (centres undefined), the survivor count [6] is reported as 0 of 10 on day 14.
`COc1ccc(-c2c(N3CCOCC3)oc3cc(N4CCOCC4)c(O)cc23)cc1` was tested, and the survivor count [7] was 10 of 10 on day 14.
With `O=C(Nc1cccc(NC(=O)c2nn[nH]n2)n1)c1nn[nH]n1` the survivor count [8] was 8 of 10 on day 14 and the survivor count [6] was 4 of 10 on day 14.
In the case of `C=CCNc1nc2c(s1)c(C)c(O)c1ccccc12`, the survivor count [9] is reported as 10 of 10 on day 14, the survivor count [10] is reported as 10 of 10 on day 14 and the survivor count (dose: 600.0 mg/kg/injection, schedule: Q04DX004 (ip), vehicle: saline with Tween-80) is reported as 10 of 10 on day 14.
`CC(C)CCC(=O)c1ccoc1` was tested, and the survivor count (dose: 4.0 mg/kg/injection, schedule: Q03HX012 (ip), vehicle: saline with Tween-80) was 0 of 10 on day 14.
`COc1cc([C@@H]2c3cc4c(c(O)c3C[C@H]3COC(=O)[C@@H]32)OCO4)cc(OC)c1OC` was tested, and the T/C (dose: 2.88 mg/kg/injection, schedule: Q04DX004 (ip), vehicle: suspension in saline) was 142 % of control and the survivor count (dose: 22.2 mg/kg/injection, schedule: Q04DX004 (ip), vehicle: suspension in saline) was 4 of 10 on day 14.
With `Oc1cc(O)cc(/C=C/c2ccc(O)c(O)c2)c1` the survivor count (dose: 50.0 mg/kg/injection, schedule: Q04DX004 (ip), vehicle: DMSO) was 10 of 10 on day 14, the survivor count (dose: 100.0 mg/kg/injection, schedule: Q04DX004 (ip), vehicle: DMSO) was 8 of 10 on day 14 and the survivor count (dose: 200.0 mg/kg/injection, schedule: Q04DX004 (ip), vehicle: DMSO) was 3 of 10 on day 14 and 7 of 10 on day 14. The survivor count (dose: 400.0 mg/kg/injection, schedule: Q04DX004 (ip), vehicle: DMSO) was 0 of 10 on day 14 and the survivor count (dose: 800.0 mg/kg/injection, schedule: Q04DX004 (ip), vehicle: DMSO) was 0 of 10 on day 14.
In the case of `O=[N+]([O-])c1ccc(/C=C/C=C/C=C/C=C/c2ccc(S(=O)(=O)F)cc2Cl)c(Cl)c1`, the survivor count [9] is reported as 10 of 10 on day 14 and the survivor count [10] is reported as 10 of 10 on day 14.
`O=NNc1cnccn1` was tested, and the T/C [1] was 126 and 129 % of control, the survivor count [3] was 7 of 10 on day 14 and the survivor count [11] was 0 of 10 on day 14.
With `COC(=O)[C@@]12OC[C@]34[C@H]([C@@H](O)[C@@H]1O)[C@@]1(C)CC(=O)C(OC(=O)CC(=O)OC5=C(C)[C@@H]6C[C@H]7OC(=O)[C@H](OC(=O)/C=C(\C)C(C)C)[C@H]8[C@]9(C(=O)OC)OC[C@]78[C@H]([C@@H](O)[C@@H]9O)[C@@]6(C)CC5=O)=C(C)[C@@H]1C[C@H]3OC(=O)[C@H](OC(=O)/C=C(\C)C(C)C)[C@@H]24` the survivor count (dose: 12.0 mg/kg/injection, schedule: Q04DX004 (ip), vehicle: saline + Tween-80 + alcohol) was 0 of 10 on day 14.
With `OC1OCC(COc2ccc(Cl)cc2)OC1O` (centres undefined) the survivor count [7] was 0 of 10 on day 14.
In the case of `C=Cc1cc(OC)c2c(c1)c(=O)oc1c2cc(OC)c2c(O)ccc(C3OC(C(C)O)C(O)C3O)c21` (centres undefined), the survivor count [8] is reported as 9 of 10 on day 14 and the survivor count [6] is reported as 3 of 10 on day 14.
`O=C1N(CCN2CCC3(CC2)OCCO3)CCN1c1cc(Cl)cc(Cl)c1` was tested, and the survivor count [3] was 10 of 10 on day 14, the survivor count [11] was 0 of 10 on day 14 and the survivor count (dose: 400.0 mg/kg/injection, schedule: Q04DX004 (ip), vehicle: water) was 0 of 10 on day 14.
With `O=C(Nc1cccc(O)c1)C(Cl)=C(Cl)Cl` the survivor count (dose: 25.0 mg/kg/injection, schedule: Q04DX004 (ip), vehicle: other) was 1 of 10 on day 14, the survivor count (dose: 50.0 mg/kg/injection, schedule: Q04DX004 (ip), vehicle: other) was 0 of 10 on day 14 and the survivor count (dose: 100.0 mg/kg/injection, schedule: Q04DX004 (ip), vehicle: other) was 0 of 10 on day 14.
With `CC(C)(O)/C=C/C(=O)[C@](C)(O)[C@H]1[C@H](O)C[C@@]2(C)[C@@H]3CC=C4[C@@H](C=C(O)C(=O)C4(C)C)[C@]3(C)C(=O)C[C@]12C` the T/C (dose: 1.0 mg/kg/injection, schedule: Q04DX004 (ip), vehicle: water) was 128 % of control [9 of 10 alive on day 14], the survivor count (dose: 2.0 mg/kg/injection, schedule: Q04DX004 (ip), vehicle: water) was 1 of 10 on day 14 and the survivor count (dose: 2.78 mg/kg/injection, schedule: Q04DX004 (ip), vehicle: water) was 0 of 10 on day 14. The survivor count (dose: 4.0 mg/kg/injection, schedule: Q04DX004 (ip), vehicle: water) was 0 of 10 on day 14, the survivor count (dose: 4.63 mg/kg/injection, schedule: Q04DX004 (ip), vehicle: water) was 0 of 10 on day 14 and the survivor count (dose: 7.72 mg/kg/injection, schedule: Q04DX004 (ip), vehicle: water) was 0 of 10 on day 14. The survivor count (dose: 8.0 mg/kg/injection, schedule: Q04DX004 (ip), vehicle: water) was 0 of 10 on day 14.
`COc1cc(C(C)(C)C)cc(OC)c1C(O)(c1c(OC)cc(C(C)(C)C)cc1OC)c1c(OC)cc(C(C)(C)C)cc1OC` was tested, and the survivor count [5] was 0 of 10 on day 14.
